PubChem BioAssay AID652248, Drosophila RNAi Screening Center – 2013

Test: 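Kinases and phosphatases whose loss pushes fly blood cells toward elongated shapes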 (primary screen)
System: cultured Drosophila hemocytes
Reagent: long dsRNA against Drosophila genes
Measurement: 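Automated microscopy of stained actin, tubulin and nuclei; single-cell shape measures assigned to five reference shape types, giving a score per dsRNA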
Reading the numbers: elongated score: higher = more elongated bipolar cells
Rule for the call: 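Hits show a significant increase of elongated cells; higher rank given where elongated cells rose as other shape types fell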
Here is a random part of 863 reagents tested. Of all reagents, 32 (3.7%) got an active call. 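Calls also used reproducibility and a similarity ranking whose scores are not deposited; many active genes show only modest elongated scores.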 Further read-outs or replicates are left out here. Reagent sequences are not shown. The record does not give: the amount of reagent, the time to read-out.

The opening 8 entries as a preview:
no.	predicted target	DRSC id	elongated score, rep 1	elongated score, rep 2	Outcome
1	CASK	DRSC14588	1.68	0.61	inactive
2	CASK	DRSC16597	-0.38		inactive
3	CASK	DRSC16598	0.08		inactive
4	CASK	DRSC21917	1.53		inactive
5	CASK	DRSC29057	3.77		inactive
6	Ack (Activated Cdc42 kinase)	DRSC08135	-0.53		inactive
7	Ack (Activated Cdc42 kinase)	DRSC28013	-0.53		inactive
8	PpD3 (Protein phosphatase D3)	DRSC16796	-0.41		inactive

The list itself, from the first entry:
no.	predicted target	DRSC id	elongated score, rep 1	elongated score, rep 2	Outcome
1	CASK	DRSC14588	1.68	0.61	inactive
2	CASK	DRSC16597	-0.38		inactive
3	CASK	DRSC16598	0.08		inactive
4	CASK	DRSC21917	1.53		inactive
5	CASK	DRSC29057	3.77		inactive
6	Ack (Activated Cdc42 kinase)	DRSC08135	-0.53		inactive
7	Ack (Activated Cdc42 kinase)	DRSC28013	-0.53		inactive
8	PpD3 (Protein phosphatase D3)	DRSC16796	-0.41		inactive
9	stg (string)	DRSC17071	-0.08		inactive
10	stg (string)	DRSC27238	0.32		inactive
11	mRNA-cap (mRNA-capping-enzyme)	DRSC19789	8.67		inactive
12	drl (derailed)	DRSC03523	-0.27		inactive
13	drl (derailed)	DRSC28564	1.3		inactive
14	PhKgamma (Phosphorylase kinase gamma)	DRSC20268	-0.53		inactive
15	PhKgamma (Phosphorylase kinase gamma)	DRSC27226	0.28		inactive
16	CkIIbeta2 (Casein kinase II beta2 subunit)	DRSC07361	-0.16		inactive
17	alc (alicorn)	DRSC07062	-0.53		inactive
18	alc (alicorn)	DRSC21464	0.93		inactive
19	alc (alicorn)	DRSC23316	-0.53		inactive
20	CycD (Cyclin D)	DRSC20233	-0.11		inactive
21	CycD (Cyclin D)	DRSC25031	-0.53		inactive
22	PpD5 (Protein phosphatase D5)	DRSC04641	-0.53		inactive
23	PpD5 (Protein phosphatase D5)	DRSC23312	0.86		inactive
24	Sik2 (Salt-inducible kinase 2)	DRSC18522	-0.41		inactive
25	sev (sevenless)	DRSC20372	0.14		inactive
26	CG17598	DRSC20636	-0.53		inactive
27	Cdc14 (Cell division cycle 14)	DRSC03013	-0.53		inactive
28	Cdc14 (Cell division cycle 14)	DRSC26430	0.22		inactive
29	Mkk4 (MAP kinase kinase 4)	DRSC16739	-0.53		inactive
30	Mkk4 (MAP kinase kinase 4)	DRSC29113	2.72		inactive
31	btl (breathless)	DRSC11331	-0.53		inactive
32	BubR1 (Bub1-related kinase)	DRSC04838	0.07		inactive
33	Tcs5 (Threonyl-carbamoyl synthesis 5)	DRSC09774	3.2		inactive
34	CG7156	DRSC16207	-0.53		inactive
35	CG7156	DRSC27345	1.51		inactive
36	S6KL (S6 Kinase Like)	DRSC19349	2.15		inactive
37	S6KL (S6 Kinase Like)	DRSC23147	-0.53		inactive
38	Tie (Tie-like receptor tyrosine kinase)	DRSC08104	-0.53		inactive
39	Tie (Tie-like receptor tyrosine kinase)	DRSC08702	-0.53		inactive
40	htl (heartless)	DRSC16968	-0.13		inactive
41	CG8726	DRSC07250	0.12		inactive
42	CG8726	DRSC26566	6.07		inactive
43	tefu (telomere fusion)	DRSC16060	-0.17		inactive
44	twe (twine)	DRSC03628	-0.11		inactive
45	twe (twine)	DRSC27109	-0.15		inactive
46	Takl1 (Tak1-like 1)	DRSC13443	-0.02		inactive
47	Takl1 (Tak1-like 1)	DRSC28251	-0.07		inactive
48	Cad96Ca (Cadherin 96Ca)	DRSC14220	2.22		inactive
49	Cad96Ca (Cadherin 96Ca)	DRSC16693	1.38		inactive
50	I-t (inhibitor-t)	DRSC16713	-0.53		inactive
51	Sac1 (Sac1 phosphatase)	DRSC08622	0.13		inactive
52	Sac1 (Sac1 phosphatase)	DRSC26886	-0.53		inactive
53	tkv (thickveins)	DRSC03623	-0.53		inactive
54	tkv (thickveins)	DRSC22606	-0.53		inactive
55	tkv (thickveins)	DRSC25957	-0.53		inactive
56	Lrrk (Leucine-rich repeat kinase)	DRSC15816	0.8	1.14	inactive
57	Lrrk (Leucine-rich repeat kinase)	DRSC21971	-0.36		inactive
58	Lrrk (Leucine-rich repeat kinase)	DRSC26140	-0.47		inactive
59	CycC (Cyclin C)	DRSC16619	-0.27		inactive
60	Src42A (Src oncogene at 42A)	DRSC04915	0.05		inactive
61	wnd (wallenda)	DRSC09626	-0.53		inactive
62	wnd (wallenda)	DRSC11046	0.59		inactive
63	wnd (wallenda)	DRSC21373	0.06		inactive
64	Pp1-13C (Protein phosphatase 1 at 13C)	DRSC20269	-0.01		inactive
65	Pp1-13C (Protein phosphatase 1 at 13C)	DRSC23305	0.75		inactive
66	Pp1-13C (Protein phosphatase 1 at 13C)	DRSC27492	-0.3		inactive
67	Pvf1 (PDGF- and VEGF-related factor 1)	DRSC20024	0.63		inactive
68	Alp5 (Alkaline phosphatase 5)	DRSC14269	-0.41		inactive
69	Alp5 (Alkaline phosphatase 5)	DRSC29539	4.87		inactive
